Results on five molecules are retold here after paper doi:10.1101/2020.04.30.070086 (bioRxiv, 2020).

Sequences of proteins named here, by UniProt entry; tags and fusion partners are left off.
UniProt Q922U2: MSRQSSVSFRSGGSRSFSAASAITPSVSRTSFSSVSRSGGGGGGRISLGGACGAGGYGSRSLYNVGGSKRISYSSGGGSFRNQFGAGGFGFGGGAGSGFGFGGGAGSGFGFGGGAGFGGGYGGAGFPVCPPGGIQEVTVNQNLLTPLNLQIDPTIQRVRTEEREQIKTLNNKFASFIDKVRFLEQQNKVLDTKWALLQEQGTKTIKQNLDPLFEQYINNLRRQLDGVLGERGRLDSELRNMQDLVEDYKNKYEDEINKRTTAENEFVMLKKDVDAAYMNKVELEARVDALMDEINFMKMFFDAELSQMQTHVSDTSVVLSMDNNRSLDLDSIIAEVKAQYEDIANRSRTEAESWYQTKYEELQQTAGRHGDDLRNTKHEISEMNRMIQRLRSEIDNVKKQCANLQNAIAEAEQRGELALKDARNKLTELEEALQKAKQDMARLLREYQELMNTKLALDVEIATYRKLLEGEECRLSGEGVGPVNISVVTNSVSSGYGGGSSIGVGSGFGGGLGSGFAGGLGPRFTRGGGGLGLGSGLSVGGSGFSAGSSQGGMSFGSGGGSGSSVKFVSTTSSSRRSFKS

Results are given in words; binding and its absence hold for the method and conditions named. Some results given as binding are weak or reduced against the parent protein; the word gives no strength. Tags and fused reporters may be left off the sequences shown.

T1: GST-Nde1 (UniProt Q9CZA6)
T1 sequence: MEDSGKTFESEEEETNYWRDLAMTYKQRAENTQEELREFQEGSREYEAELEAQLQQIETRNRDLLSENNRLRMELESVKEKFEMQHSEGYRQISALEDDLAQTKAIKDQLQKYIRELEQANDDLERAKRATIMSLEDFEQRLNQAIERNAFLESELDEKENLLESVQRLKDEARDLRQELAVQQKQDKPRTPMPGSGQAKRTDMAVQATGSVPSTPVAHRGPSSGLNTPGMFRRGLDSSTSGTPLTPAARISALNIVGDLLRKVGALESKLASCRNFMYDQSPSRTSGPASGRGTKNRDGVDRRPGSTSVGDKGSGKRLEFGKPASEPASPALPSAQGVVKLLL

T2: GST-Ndel1, full length (FL) (UniProt Q9ERR1)
T2 sequence: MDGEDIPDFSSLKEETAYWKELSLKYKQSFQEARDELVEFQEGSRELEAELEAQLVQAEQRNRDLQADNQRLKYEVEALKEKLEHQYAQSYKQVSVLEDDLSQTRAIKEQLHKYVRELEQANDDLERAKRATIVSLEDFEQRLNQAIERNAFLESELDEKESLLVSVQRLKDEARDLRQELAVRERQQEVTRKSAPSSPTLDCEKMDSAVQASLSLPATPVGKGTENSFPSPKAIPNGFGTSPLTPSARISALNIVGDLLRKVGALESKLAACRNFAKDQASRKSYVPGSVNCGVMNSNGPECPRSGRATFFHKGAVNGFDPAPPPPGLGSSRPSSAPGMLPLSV

B1: keratin 1 (K1) (protein, UniProt P04104 1-637)
chain: MSLQCSSRSLCRGGGGSRNFSSGSAGLVSFQRRSTSSSMRRSGGGGGGRFSGGGFCGSSGSGFGSKSLMNLGGGRSISKSVAGGGGSFCGGFGGGSYGGGGFGGGSYGGGGFGGGSFGGGGFGGSGFGGGLGGGGGFGSGGGFGGGRFGSMGPVCPPGGIQEVTINQSLLQPLNVEVDPQIQKVKSQEREQIKSLNDKFASFIDKVRFLEQQNQVLQTKWELLQQVDTTTRTQNLDPFFENYISILRRKVDSLKSDQSRMDSELKNMQDLVEEYRTKYEDEINKRTNAENEFVTIKKDVDSAYMTKVELQAKADALQQDIDFFSALYQMEMSQMQTQISETNVVLSMDNNRSLDLDGIISEVKAQYDSICQRSKAEAETFYQSKYEELQITAGKHGDSVRNTKMEISELNRMIQRLRSEIDGCKKQISQIQQNINDAEQRGEKALKDAQNKLNEIEDALSQCKEDLARLLRDFQELMNTKLALDMEIATYKKLLEGEEIRMSGECTPNVSVSVSTSHTSMSGSSSRGGGSGGGRYGGGGSYGGGSGGGSYGGSSGGGGSGGSYGGGSGGGSYGGGSGGGSSGSHRGGSGGGGGSSGGSYGGSSGGGRGGSSSGGGGVKSSGSSTVKFVSTSYSRGTK
B2: keratin 10 (K10), full length (natural protein, UniProt P02535-2 1-561, looked up)
chain: MSVLYSSSSKQFSSSRSGGGGGGGSVRVSSTRGSLGGGYSSGGFSGGSFSRGSSGGGCFGGSSGGYGGFGGGGSFGGGYGGSSFGGGYGGSSFGGGSFGGGGSFGGGSFGGGSYGGGFGGGGFGGDGGSLLSGNEKVTMQNLNDRLASYMDKVRALEESNYELEGKIKEWYEKHGNSSQREPRDYSKYYKTIEDLKGQILTLTTDNANVLLQIDNARLAADDFRLKYENEVTLRQSVEADINGLRRVLDELTLSKSDLEMQIESLNEELAYLKKNHEEEMRDLQNVSTGDVNVEMNAAPGVDLTQLLNNMRNQYEQLAEKNRKDAEEWFNQKSKELTTEIDSNIEQMSSHKSEITELRRTVQGLEIELQSQLALKQSLEASLAETEGRYCVQLSQIQSQISALEEQLQQIRAETECQNAEYQQLLDIKTRLENEIQTYRSLLEGEGSSSGGGGGRRGGSGGGSYGGSSGGGSYGGSSGGGGSYGGSSGGGGSYGGGSSGGGSHGGSSGGGYGGGSSSGGAGGHGGSSGGGYGGGSSSGGQGGSGGFKSSGGGDQSSKGPRY
B3: headless K1 and K10 (K1 amino acids 185-637 and K10 amino acids 129-561), allowed to interact (complex, UniProt P04104 185-637; P02535-2 129-561)
chain 1: KSQEREQIKSLNDKFASFIDKVRFLEQQNQVLQTKWELLQQVDTTTRTQNLDPFFENYISILRRKVDSLKSDQSRMDSELKNMQDLVEEYRTKYEDEINKRTNAENEFVTIKKDVDSAYMTKVELQAKADALQQDIDFFSALYQMEMSQMQTQISETNVVLSMDNNRSLDLDGIISEVKAQYDSICQRSKAEAETFYQSKYEELQITAGKHGDSVRNTKMEISELNRMIQRLRSEIDGCKKQISQIQQNINDAEQRGEKALKDAQNKLNEIEDALSQCKEDLARLLRDFQELMNTKLALDMEIATYKKLLEGEEIRMSGECTPNVSVSVSTSHTSMSGSSSRGGGSGGGRYGGGGSYGGGSGGGSYGGSSGGGGSGGSYGGGSGGGSYGGGSGGGSSGSHRGGSGGGGGSSGGSYGGSSGGGRGGSSSGGGGVKSSGSSTVKFVSTSYSRGTK
chain 2: SLLSGNEKVTMQNLNDRLASYMDKVRALEESNYELEGKIKEWYEKHGNSSQREPRDYSKYYKTIEDLKGQILTLTTDNANVLLQIDNARLAADDFRLKYENEVTLRQSVEADINGLRRVLDELTLSKSDLEMQIESLNEELAYLKKNHEEEMRDLQNVSTGDVNVEMNAAPGVDLTQLLNNMRNQYEQLAEKNRKDAEEWFNQKSKELTTEIDSNIEQMSSHKSEITELRRTVQGLEIELQSQLALKQSLEASLAETEGRYCVQLSQIQSQISALEEQLQQIRAETECQNAEYQQLLDIKTRLENEIQTYRSLLEGEGSSSGGGGGRRGGSGGGSYGGSSGGGSYGGSSGGGGSYGGSSGGGGSYGGGSSGGGSHGGSSGGGYGGGSSSGGAGGHGGSSGGGYGGGSSSGGQGGSGGFKSSGGGDQSSKGPRY
B4: keratin 10(L442A), full length point mutant (protein, UniProt P02535-2 1-561)
chain: MSVLYSSSSKQFSSSRSGGGGGGGSVRVSSTRGSLGGGYSSGGFSGGSFSRGSSGGGCFGGSSGGYGGFGGGGSFGGGYGGSSFGGGYGGSSFGGGSFGGGGSFGGGSFGGGSYGGGFGGGGFGGDGGSLLSGNEKVTMQNLNDRLASYMDKVRALEESNYELEGKIKEWYEKHGNSSQREPRDYSKYYKTIEDLKGQILTLTTDNANVLLQIDNARLAADDFRLKYENEVTLRQSVEADINGLRRVLDELTLSKSDLEMQIESLNEELAYLKKNHEEEMRDLQNVSTGDVNVEMNAAPGVDLTQLLNNMRNQYEQLAEKNRKDAEEWFNQKSKELTTEIDSNIEQMSSHKSEITELRRTVQGLEIELQSQLALKQSLEASLAETEGRYCVQLSQIQSQISALEEQLQQIRAETECQNAEYQQLLDIKTRLENEIQTYRSLAEGEGSSSGGGGGRRGGSGGGSYGGSSGGGSYGGSSGGGGSYGGSSGGGGSYGGGSSGGGSHGGSSGGGYGGGSSSGGAGGHGGSSGGGYGGGSSSGGQGGSGGFKSSGGGDQSSKGPRY

The first test has as its target T1, GST-Nde1. The test is described as follows: pull-down.
Take “keratin 5 (K5) (from UniProt Q922U2 1-580)”: the binding result is listed as “binds”.
Take B1: the binding entry is “binds”.
In the case of B2, the binding entry is reported as “binds”.

A further test deals with T2, GST-Ndel1, full length (FL). Kind of test: pull-down.
In the case of B3, the binding entry is on record as “binds”.
With B2, the binding result is reported as “binds”.
Turning to B4, the binding entry is “no binding”.
